No constants are given. Whether binding was seen depends on the method and setting. In cells and extracts the contact can be indirect. Some results given as binding are weak or reduced against the parent protein; the word gives no strength.
Molecular target: Werner protein (WRNp), endogenous (human (endogenous in TERT-1604, HeLa, U2OS)) (UniProt Q14191)
Assay: co-IP; extracts of HeLa cells transiently transfected with GFP-NCL constructs (150 mM NaCl, 50 mM Tris-HCl pH 7.5, 0.5% NP-40), precipitated with WRN antibody, blotted with anti-GFP

Sequences of proteins named here, by UniProt entry; tags and fusion partners are left off. A change or cut given only in a name is not applied to a line headed by its entry. Residues count along the entry.
UniProt Q14191: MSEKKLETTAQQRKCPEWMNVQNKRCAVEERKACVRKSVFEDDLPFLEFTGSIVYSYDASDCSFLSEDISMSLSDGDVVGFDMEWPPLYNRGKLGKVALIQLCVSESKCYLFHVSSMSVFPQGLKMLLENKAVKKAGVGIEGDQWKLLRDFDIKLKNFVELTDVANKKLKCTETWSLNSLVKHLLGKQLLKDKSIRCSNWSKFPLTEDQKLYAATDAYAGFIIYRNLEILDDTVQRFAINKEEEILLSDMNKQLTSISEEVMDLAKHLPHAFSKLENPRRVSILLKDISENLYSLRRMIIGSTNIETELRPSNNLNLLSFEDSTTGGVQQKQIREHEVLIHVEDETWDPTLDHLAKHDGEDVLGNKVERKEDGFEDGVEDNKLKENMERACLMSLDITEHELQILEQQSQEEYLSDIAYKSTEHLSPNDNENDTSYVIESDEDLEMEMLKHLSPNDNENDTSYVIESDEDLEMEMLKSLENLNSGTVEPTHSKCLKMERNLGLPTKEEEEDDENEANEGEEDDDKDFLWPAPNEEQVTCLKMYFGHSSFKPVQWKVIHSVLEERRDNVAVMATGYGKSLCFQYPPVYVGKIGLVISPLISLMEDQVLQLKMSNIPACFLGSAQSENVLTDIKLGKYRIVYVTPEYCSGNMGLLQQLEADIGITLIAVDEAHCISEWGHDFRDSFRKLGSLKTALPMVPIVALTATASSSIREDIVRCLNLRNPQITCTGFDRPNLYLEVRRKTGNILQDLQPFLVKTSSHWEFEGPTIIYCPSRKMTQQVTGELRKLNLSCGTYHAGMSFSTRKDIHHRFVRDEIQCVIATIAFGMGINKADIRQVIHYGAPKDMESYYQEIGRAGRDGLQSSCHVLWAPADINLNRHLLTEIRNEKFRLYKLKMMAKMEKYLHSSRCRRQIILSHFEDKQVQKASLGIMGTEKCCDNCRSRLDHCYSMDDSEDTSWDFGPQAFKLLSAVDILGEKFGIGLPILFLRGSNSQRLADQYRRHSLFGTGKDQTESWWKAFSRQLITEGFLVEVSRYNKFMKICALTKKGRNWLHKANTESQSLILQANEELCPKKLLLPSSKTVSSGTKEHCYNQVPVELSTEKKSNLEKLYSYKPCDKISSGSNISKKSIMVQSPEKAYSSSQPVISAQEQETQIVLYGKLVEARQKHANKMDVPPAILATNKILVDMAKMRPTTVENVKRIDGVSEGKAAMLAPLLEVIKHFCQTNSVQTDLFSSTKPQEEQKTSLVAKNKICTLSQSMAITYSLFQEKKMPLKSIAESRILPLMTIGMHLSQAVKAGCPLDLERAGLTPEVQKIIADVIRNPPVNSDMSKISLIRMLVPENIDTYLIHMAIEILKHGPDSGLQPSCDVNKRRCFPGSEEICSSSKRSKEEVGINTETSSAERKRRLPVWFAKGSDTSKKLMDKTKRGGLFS
GFP-NCL 1–283 (N-terminal domain) (P19338, residues 1-283): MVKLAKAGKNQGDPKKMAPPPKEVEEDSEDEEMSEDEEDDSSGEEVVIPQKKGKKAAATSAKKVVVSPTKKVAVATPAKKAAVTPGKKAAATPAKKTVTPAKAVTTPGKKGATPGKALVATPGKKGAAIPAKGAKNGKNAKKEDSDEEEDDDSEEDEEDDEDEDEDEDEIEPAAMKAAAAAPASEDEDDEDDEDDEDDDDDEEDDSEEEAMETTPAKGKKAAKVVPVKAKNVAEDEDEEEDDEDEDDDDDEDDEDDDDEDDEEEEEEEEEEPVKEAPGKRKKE
GFP-NCL 284–707 (GFP-ΔN-NCL) (P19338, residues 284-707): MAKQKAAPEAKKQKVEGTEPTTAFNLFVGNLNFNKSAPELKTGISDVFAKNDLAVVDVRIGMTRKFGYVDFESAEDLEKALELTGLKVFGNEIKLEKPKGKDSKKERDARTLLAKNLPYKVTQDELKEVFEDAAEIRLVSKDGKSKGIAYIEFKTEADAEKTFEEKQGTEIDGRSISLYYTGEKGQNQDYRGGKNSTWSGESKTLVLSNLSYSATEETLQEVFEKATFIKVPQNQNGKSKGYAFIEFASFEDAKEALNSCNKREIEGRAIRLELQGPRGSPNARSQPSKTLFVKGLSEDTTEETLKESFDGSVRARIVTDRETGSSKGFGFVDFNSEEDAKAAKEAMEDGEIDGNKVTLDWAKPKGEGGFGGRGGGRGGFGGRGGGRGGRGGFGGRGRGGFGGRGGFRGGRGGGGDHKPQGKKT

binding | Substance
no binding | GFP-NCL 1–283 (N-terminal domain) (from UniProt P19338 1-283) (domain or fragment)
binds | GFP-NCL 284–707 (GFP-ΔN-NCL) (from UniProt P19338 284-707) (domain or fragment)
